Results reported in article PMC3009604.
Results are given in words; binding and its absence hold for the method and conditions named. Binding seen in cells or lysates may run through a third protein. Some results given as binding are weak or reduced against the parent protein; the word gives no strength. Values belong to the substance of their own block, whether it stands above or below them.

Chains of the proteins cited; added tags and fusions are not shown.
UniProt P35579: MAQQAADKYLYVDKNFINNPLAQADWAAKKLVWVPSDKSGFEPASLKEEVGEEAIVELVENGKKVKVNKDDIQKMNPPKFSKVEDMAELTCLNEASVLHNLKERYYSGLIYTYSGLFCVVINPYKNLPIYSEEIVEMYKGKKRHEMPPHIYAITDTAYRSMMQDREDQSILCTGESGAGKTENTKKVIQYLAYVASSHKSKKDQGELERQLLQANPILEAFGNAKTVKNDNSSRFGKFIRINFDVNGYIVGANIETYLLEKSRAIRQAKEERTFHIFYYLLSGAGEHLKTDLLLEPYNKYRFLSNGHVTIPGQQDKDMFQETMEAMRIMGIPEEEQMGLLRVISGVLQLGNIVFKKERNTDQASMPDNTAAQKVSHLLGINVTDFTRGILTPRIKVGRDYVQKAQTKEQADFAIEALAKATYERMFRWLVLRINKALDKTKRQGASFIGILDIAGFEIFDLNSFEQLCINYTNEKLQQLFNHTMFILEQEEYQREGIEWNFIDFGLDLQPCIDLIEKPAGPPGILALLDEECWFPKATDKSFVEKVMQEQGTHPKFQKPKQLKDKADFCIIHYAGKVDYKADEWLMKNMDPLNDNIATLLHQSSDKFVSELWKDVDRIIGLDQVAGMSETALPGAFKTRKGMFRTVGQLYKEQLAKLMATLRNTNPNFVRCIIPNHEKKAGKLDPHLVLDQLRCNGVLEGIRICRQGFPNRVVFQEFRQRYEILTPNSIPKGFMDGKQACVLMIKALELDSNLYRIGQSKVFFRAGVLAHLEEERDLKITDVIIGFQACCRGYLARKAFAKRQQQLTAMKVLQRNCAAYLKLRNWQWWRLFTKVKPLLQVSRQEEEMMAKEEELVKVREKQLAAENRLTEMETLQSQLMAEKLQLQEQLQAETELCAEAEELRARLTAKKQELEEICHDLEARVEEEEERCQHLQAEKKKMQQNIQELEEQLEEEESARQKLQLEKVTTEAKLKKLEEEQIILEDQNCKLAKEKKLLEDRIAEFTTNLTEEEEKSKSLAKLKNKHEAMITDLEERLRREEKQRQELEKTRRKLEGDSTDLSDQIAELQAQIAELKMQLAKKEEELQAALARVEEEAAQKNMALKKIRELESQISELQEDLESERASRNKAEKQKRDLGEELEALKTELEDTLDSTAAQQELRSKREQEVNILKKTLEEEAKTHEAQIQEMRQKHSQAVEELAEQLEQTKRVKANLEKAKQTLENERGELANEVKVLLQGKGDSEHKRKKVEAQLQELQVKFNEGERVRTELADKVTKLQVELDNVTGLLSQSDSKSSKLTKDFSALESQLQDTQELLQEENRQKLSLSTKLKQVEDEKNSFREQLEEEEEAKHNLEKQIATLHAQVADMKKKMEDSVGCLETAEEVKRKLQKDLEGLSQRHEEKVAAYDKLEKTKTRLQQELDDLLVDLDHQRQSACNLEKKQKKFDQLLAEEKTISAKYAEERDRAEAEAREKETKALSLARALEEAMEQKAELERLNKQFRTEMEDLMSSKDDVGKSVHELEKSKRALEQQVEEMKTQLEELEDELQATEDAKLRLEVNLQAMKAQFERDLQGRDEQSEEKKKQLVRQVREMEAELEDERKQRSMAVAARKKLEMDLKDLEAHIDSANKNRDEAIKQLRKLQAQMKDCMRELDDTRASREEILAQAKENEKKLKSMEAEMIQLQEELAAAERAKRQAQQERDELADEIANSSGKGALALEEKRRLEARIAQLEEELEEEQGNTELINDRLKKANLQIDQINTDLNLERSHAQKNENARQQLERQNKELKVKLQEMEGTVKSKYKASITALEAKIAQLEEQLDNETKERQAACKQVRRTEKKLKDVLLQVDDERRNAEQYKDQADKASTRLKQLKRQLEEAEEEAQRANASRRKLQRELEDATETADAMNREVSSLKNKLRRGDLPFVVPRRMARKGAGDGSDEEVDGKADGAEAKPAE

Tests used:
[1] = biological target: GST-Cbl C (Cbl residues 358–906) (UniProt P22681); experiment: pull-down; GST-Cbl fusion proteins from bacterial lysates bound to glutathione-Sepharose beads and washed, incubated with RIPA lysates (500 µg) of 293T cells expressing GFP-myosin IIA; Western blot with anti-GFP antibody; only the target purified
[2] = biological target: HA-tagged Cbl wild-type (UniProt P22681); experiment: co-IP; HeLa cells transfected with HA-tagged Cbl constructs, serum starved 4 h, stimulated with TPA (100 ng/ml) 5 min; RIPA lysates immunoprecipitated with anti-HA antibodies, immunoblotted with myosin IIA antibody
[3] = biological target: c-Cbl (human (endogenous in HMVEC-d)) (UniProt P22681); experiment: co-IP; lysates (RIPA buffer) of serum starved HMVEC-d cells, uninfected or infected with KSHV (time course; 10 min for myosin blots; also heparin treated virus, also cells pretreated with 2 µg/ml cytochalasin D); immunoprecipitated with anti-c-Cbl antibody, 2 h at 4°C, protein A or G-Sepharose; Western blot with anti-p85 or myosin II isoform specific antibodies

binding [1]: binds
Substance: GFP-tagged myosin IIA (from UniProt P35579 1-1960)

binding [2]: binds
Substance: endogenous myosin IIA (HeLa) (from UniProt P35579 1-1960)

binding [3]: binds
Substance: non-muscle myosin heavy chain IIA (from UniProt P35579 1-1960)
